Assay results published in article doi:10.1101/2021.03.22.436447.
Results are given in words; binding and its absence hold for the method and conditions named. Some entries that bind do so weakly or less than the wild type.

Target: spectacled caiman (Caiman crocodilus) hemoglobin tetramer (Caiman crocodilus (endogenous in red blood cells)) (UniProt P02000+P02131)
Test: SEC

binding: binds
Substance: spectacled caiman (Caiman crocodilus) hemoglobin tetramer (from UniProt P02000 1-141; P02131 1-146) (complex)
